Measurements from US20100240774A1, “USE OF HYDROPHOBIN POLYPEPTIDES AS PENETRATION ENHANCERS” (BASF SE, priority 2007, published 2010).

Experiment: absorption and binding of hair tint dyes by hydrophobin treated hair
Conditions: hair incubated 1 hour at 32° C. with 0.01 to 0.2 percent by weight hydrophobin, then tinted and repeatedly washed; particularly first test variation

Row | Molecule | binding and dye absorption of hair tint
1 | hydrophobin B: fusion hydrophobin, SEQ ID NO: 26 from WO2007/14897; SEQ ID NO: 36 herein (yaad40-Xa-dewA-his) (protein, fusion protein yaad40-Xa-dewA-his) MAQTGTERVKRGMAEMQKGGVIMDVINAEQAKIAEEAGAVIEGRMRFIVSLLAFTAAATATALPASAAKNAKLATSAAFAKQAEGTTCNVGSIACCNSPAETNNDSLLSGLLGAGLLNGLSGNTGSACAKASLIDQLGLLALVDHTEEGPVCKNIVACCPEGTTNCVAVDNAGAGTKAEGSHHHHHH | increased binding and dye absorption
2 | hydrophobin A: fusion hydrophobin, SEQ ID NO: 20 from WO2007/14897 and herein (yaad-Xa-dewA-his) (protein, basf-yaad-Xa-dewA-his fusion of Bacillus subtilis yaaD and N-terminal factor Xa proteinase cleavage site and Aspergillus nidulans hydrophobin dewA and his6) MAQTGTERVKRGMAEMQKGGVIMDVINAEQAKIAEEAGAVAVMALERVPADIRAAGGVARMADPTIVEEVMNAVSIPVMAKARIGHIVEARVLEAMGVDYIDESEVLTPADEEFHLNKNEYTVPFVCGCRDLGEATRRIAEGASMLRTKGEPGTGNIVEAVRHMRKVNAQVRKVVAMSEDELMTEAKNLGAPYELLLQIKKDGKLPVVNFAAGGVATPADAALMMQLGADGVFVGSGIFKSDNPAKFAKAIVEATTHFTDYKLIAELSKELGTAMKGIEISNLLPEQRMQERGWRSIEGRMRFIVSLLAFTAAATATALPASAAKNAKLATSAAFAKQAEGTTCNVGSIACCNSPAETNNDSLLSGLLGAGLLNGLSGNTGSACAKASLIDQLGLLALVDHTEEGPVCKNIVACCPEGTTNCVAVDNAGAGTKAEGSHHHHHH | increased binding and dye absorption
